From the supplement of paper PMC10849652
This is one part of the list.

Protein sequences, listed by entry. Tags and fused reporters are not part of them. Lines headed by an entry give the natural chain unless they say otherwise; changes in a name come on top.
UniProt Q9Y371: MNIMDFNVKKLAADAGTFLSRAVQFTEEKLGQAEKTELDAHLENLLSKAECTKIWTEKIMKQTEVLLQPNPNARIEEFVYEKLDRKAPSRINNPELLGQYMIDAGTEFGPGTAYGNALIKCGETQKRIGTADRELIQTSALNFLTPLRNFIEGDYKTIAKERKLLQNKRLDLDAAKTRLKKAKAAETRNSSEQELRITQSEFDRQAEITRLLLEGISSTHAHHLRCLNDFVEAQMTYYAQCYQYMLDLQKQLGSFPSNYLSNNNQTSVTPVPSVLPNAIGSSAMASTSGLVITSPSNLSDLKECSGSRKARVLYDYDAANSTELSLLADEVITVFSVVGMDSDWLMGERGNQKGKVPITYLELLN
UniProt O94979: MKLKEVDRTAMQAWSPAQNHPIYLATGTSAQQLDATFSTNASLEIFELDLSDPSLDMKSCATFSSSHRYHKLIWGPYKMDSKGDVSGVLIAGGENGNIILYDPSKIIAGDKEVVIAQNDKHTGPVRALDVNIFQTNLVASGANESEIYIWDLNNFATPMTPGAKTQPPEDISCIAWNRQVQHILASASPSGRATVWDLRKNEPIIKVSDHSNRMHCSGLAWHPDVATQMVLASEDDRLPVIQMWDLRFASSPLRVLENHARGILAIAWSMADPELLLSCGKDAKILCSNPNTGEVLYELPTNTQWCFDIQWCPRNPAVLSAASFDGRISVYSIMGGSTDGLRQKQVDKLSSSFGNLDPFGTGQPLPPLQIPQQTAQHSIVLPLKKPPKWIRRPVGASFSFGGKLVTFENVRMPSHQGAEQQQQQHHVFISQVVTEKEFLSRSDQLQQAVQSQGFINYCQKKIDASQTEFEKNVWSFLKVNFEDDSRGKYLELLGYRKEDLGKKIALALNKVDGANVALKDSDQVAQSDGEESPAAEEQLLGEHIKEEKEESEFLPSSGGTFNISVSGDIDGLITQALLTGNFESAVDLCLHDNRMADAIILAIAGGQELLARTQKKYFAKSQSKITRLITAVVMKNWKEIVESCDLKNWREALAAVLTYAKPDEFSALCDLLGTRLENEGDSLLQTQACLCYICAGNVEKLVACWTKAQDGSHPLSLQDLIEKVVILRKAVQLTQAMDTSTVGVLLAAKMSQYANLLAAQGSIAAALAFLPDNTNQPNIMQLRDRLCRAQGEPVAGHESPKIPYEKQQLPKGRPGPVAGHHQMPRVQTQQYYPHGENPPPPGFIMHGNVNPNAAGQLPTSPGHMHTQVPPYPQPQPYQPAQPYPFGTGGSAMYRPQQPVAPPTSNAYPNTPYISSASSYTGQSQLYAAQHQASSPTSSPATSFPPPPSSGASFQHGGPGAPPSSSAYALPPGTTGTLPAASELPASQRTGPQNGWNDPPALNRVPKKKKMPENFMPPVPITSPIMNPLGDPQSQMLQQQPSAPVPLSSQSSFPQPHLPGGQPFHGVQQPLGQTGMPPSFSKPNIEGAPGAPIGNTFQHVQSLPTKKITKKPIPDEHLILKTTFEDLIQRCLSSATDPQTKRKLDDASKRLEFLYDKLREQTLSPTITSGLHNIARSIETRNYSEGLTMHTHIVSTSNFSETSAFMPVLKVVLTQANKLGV
UniProt Q9H173: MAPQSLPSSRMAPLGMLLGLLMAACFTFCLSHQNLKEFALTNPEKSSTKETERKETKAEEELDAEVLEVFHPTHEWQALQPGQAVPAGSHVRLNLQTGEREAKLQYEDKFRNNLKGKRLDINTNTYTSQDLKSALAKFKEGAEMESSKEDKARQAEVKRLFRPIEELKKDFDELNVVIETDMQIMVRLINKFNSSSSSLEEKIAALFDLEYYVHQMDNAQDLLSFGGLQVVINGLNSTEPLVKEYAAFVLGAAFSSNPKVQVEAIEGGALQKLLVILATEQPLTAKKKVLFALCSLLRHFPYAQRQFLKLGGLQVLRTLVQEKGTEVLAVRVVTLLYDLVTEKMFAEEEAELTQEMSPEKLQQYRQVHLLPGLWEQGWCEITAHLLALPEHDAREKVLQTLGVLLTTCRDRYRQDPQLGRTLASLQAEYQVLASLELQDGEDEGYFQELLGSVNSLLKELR
UniProt Q6P4A7: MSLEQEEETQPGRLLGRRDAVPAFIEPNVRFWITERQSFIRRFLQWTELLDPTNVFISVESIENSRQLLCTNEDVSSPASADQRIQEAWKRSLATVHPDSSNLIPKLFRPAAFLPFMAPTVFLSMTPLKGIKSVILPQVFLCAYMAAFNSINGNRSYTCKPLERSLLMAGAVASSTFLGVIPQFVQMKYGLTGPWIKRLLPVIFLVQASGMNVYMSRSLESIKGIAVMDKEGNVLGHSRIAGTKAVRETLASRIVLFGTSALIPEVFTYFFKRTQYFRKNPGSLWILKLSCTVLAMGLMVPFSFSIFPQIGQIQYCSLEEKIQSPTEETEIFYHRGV
UniProt Q9H9B4: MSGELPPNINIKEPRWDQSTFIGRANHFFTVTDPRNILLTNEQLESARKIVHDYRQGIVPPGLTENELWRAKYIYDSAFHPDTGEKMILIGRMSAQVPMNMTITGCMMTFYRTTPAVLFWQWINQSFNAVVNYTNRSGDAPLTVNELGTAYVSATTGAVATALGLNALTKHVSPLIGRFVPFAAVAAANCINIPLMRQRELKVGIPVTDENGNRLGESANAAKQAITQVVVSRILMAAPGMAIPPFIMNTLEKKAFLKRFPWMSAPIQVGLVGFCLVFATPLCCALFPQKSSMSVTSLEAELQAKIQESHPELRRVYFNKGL
UniProt Q7L8J4: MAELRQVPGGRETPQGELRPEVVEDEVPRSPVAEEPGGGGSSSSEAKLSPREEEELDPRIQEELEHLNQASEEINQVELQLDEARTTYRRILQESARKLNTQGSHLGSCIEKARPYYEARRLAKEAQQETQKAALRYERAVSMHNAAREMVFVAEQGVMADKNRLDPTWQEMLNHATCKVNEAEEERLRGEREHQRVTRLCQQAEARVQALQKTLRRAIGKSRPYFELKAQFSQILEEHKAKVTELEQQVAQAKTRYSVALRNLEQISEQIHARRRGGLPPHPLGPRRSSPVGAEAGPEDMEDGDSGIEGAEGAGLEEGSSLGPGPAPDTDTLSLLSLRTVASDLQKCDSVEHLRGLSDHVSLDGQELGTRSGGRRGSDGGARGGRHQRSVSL
UniProt Q15459: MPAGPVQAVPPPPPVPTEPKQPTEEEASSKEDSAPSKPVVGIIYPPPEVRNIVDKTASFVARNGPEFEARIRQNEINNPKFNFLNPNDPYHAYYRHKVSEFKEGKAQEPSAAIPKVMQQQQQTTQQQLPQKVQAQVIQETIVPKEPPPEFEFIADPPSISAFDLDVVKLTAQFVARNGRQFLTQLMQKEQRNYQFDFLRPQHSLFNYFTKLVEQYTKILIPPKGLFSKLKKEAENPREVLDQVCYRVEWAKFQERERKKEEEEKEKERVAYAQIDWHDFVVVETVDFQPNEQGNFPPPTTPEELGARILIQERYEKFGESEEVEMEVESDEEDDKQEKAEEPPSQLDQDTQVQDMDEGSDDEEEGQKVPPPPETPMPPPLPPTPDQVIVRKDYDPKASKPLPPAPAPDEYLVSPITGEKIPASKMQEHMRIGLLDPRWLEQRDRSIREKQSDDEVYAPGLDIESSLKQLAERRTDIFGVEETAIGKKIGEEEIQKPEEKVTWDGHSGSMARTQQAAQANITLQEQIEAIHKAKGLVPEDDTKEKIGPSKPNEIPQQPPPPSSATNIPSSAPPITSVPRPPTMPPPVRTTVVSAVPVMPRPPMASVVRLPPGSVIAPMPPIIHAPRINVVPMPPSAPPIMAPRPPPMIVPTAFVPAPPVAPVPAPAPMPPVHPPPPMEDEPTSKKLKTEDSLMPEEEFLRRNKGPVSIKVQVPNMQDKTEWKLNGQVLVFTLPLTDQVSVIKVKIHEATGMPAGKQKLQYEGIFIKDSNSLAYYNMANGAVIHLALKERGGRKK
UniProt P08697: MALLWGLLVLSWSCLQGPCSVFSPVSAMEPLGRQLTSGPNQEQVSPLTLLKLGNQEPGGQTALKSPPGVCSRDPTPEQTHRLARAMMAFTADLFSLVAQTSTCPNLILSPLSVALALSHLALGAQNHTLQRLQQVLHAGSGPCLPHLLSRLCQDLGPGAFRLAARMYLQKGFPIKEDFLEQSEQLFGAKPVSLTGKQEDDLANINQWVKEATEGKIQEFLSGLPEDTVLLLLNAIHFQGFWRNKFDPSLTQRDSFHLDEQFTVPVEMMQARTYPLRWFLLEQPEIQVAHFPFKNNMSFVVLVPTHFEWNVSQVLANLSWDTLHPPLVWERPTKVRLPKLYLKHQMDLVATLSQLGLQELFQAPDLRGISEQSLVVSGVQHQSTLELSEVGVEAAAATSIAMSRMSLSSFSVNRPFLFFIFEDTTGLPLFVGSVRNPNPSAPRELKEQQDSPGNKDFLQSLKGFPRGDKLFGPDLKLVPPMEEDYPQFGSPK
UniProt Q9UJC5: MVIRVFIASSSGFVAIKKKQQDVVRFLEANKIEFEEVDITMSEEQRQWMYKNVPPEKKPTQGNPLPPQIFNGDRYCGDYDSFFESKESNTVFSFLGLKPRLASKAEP
UniProt P49903: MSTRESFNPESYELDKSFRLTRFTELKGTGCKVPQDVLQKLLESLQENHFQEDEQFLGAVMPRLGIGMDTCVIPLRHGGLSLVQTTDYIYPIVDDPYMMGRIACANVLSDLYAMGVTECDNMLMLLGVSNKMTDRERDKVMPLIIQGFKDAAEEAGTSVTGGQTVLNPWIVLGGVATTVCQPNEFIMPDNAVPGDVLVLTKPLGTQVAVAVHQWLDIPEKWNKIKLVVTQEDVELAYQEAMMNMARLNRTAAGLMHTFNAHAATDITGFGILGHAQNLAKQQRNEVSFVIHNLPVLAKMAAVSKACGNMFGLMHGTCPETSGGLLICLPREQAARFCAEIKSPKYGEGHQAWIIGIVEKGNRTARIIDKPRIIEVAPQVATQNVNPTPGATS
UniProt Q12874: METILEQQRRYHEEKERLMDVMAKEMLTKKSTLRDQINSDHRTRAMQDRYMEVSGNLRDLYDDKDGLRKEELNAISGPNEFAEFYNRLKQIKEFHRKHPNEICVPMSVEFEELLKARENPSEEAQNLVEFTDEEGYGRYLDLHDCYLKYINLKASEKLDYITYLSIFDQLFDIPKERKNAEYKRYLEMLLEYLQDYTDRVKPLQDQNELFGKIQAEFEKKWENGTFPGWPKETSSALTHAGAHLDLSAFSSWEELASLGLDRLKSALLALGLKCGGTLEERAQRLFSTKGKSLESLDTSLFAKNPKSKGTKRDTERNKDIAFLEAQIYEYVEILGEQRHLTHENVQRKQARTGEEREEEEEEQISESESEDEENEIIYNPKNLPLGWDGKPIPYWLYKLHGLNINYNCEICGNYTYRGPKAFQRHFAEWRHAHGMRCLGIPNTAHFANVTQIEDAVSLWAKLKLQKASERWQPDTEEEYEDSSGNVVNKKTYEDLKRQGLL
UniProt Q9HAT2: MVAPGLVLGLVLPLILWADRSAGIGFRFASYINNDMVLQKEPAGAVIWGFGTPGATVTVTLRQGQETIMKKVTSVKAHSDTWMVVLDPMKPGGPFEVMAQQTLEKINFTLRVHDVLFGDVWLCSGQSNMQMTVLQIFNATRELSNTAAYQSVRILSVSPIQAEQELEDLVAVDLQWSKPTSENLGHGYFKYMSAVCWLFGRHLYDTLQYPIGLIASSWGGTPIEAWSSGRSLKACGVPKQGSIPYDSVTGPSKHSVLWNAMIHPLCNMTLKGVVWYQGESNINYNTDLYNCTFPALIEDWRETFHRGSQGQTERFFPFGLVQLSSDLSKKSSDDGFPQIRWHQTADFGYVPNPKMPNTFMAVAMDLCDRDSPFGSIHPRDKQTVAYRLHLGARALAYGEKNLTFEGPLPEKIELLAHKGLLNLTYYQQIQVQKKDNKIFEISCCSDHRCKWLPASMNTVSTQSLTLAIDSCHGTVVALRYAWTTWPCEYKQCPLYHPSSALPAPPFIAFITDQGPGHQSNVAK
UniProt P84101: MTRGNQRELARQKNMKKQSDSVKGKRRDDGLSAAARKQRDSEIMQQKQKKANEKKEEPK
UniProt Q86XK3: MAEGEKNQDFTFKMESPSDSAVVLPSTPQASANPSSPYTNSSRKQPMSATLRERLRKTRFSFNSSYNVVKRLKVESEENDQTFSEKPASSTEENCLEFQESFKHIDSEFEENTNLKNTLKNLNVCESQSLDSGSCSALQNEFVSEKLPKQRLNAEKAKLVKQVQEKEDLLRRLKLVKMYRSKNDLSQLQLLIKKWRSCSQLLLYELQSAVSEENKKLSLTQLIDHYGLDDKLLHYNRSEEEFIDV
UniProt O43765: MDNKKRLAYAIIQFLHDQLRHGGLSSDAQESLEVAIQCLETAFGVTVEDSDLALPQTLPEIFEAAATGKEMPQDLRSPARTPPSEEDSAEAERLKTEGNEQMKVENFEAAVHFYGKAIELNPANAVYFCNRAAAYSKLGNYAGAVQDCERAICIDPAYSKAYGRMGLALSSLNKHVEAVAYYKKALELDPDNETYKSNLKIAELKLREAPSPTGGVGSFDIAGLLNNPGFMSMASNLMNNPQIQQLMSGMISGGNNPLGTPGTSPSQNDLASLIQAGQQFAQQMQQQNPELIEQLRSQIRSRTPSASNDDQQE

Legend:
Test in all cases: log2 fold change, soluble protein after heating vs DMSO (PISA); higher = thermal stabilisation; K562 cells, 10 uM, 30 min; active = over 0.2 and 3.5 SD of the protein, either way, in both replicates (recomputed)
[1] = compound: C1=CC=C(C=C1)[C@H](COC2=CC3=C(C=C2)NC(=O)N3)NC(=O)C4=CC=CN(C4=O)CC5=CC(=C(C=C5)F)F
Summary of the method: (§1)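 Values are thermal stability changes relative to control samples and are taken from duplicates. They are stated as log2 fold changes. Before quantification by TMTpro 16plex LC-MS/MS with equalised channel sums, K562 cells at 2×10^6 cells/mL were treated with 10 μM compound for 30 min, heated in aliquots for 3 min across 48°C-58°C, pooled, extracted in PBS with 0.5% NP-40 at 4°C, and centrifuged at 21,000xg for 90 min to give the soluble supernatant.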

[2] = compound: CC1=C(SC2=C1C(=N[C@H](C3=NN=C(N32)C)CC(=O)N)C4=CC=C(C=C4)Cl)C
Summary of the method: as §1

[3] = compound: CC1=C2C(=CC=C1)N=C(N(C2=O)C3=CC=CC=C3C)CN4C=NC5=C(N=CN=C54)N
Summary of the method: as §1

[4] = compound: Cc1sc2c(c1C)C(c1ccc(Cl)cc1)=N[C@@H](CC(=O)OC(C)(C)C)c1nnc(C)n1-2
Summary of the method: as §1

[5] = compound: c1ccc([C@@H]2C[C@H]2NC2CCNCC2)cc1
Summary of the method: as §1

Measured: log2 fold change

SERPINH1 (UniProt P50454)
inactive: [1] 0.046 | [2] 0.007 | [3] -0.025 | [4] -0.017 | [5] -0.037

SEPTIN6 (UniProt Q14141)
inactive: [1] 0.058 | [2] 0.058 | [3] -0.006 | [4] -0.009 | [5] -0.009

SH3GLB1 isoform 2 (UniProt Q9Y371)
inactive: [1] -0.061 | [2] 0.015 | [3] 0.034 | [4] 0.123 | [5] -0.019

SERBP1 (UniProt Q8NC51)
inactive: [1] 0.067 | [2] -0.034 | [3] -0.023 | [4] 0.053 | [5] 0.035

SEC31A (UniProt O94979)
inactive: [1] -0.067 | [2] 0.034 | [3] 0.09 | [4] -0.03 | [5] -0.006

SIL1 (UniProt Q9H173)
inactive: [1] 0.034 | [2] -0.005 | [3] 0.064 | [4] 0.034 | [5] -0.006

SIKE1 (UniProt Q9BRV8)
inactive: [1] 0.001 | [2] 0.056 | [3] 0.066 | [4] 0.048 | [5] -0.066

SFXN4 (UniProt Q6P4A7)
inactive: [1] 0.012 | [2] -0.011 | [3] 0.104 | [4] -0.015 | [5] 0.055

SFXN1 (UniProt Q9H9B4)
inactive: [1] -0.004 | [2] 0.075 | [3] 0.028 | [4] -0.056 | [5] -0.01

SFN (UniProt P31947)
inactive: [1] 0.004 | [2] 0.042 | [3] 0.073 | [4] -0.027 | [5] -0.017

SIRT1 (UniProt Q96EB6)
inactive: [1] -0.005 | [2] 0.022 | [3] 0.067 | [4] 0.029 | [5] -0.025

SF3B4 (UniProt Q15427)
inactive: [1] 0.044 | [2] -0.047 | [3] -0.125 | [4] 0.064 | [5] 0.117

SF1 isoform 5 (UniProt Q15637)
inactive: [1] -0.012 | [2] 0.024 | [3] -0.013 | [4] -0.026 | [5] 0.031

SH3BP5L (UniProt Q7L8J4)
inactive: [1] -0.023 | [2] 0.02 | [3] 0.14 | [4] -0.014 | [5] -0.045

SH3GLB2 (UniProt Q9NR46)
inactive: [1] -0.029 | [2] 0.064 | [3] 0.029 | [4] 0.004 | [5] -0.063

SF3A1 (UniProt Q15459)
inactive: [1] -0.021 | [2] 0.006 | [3] 0.007 | [4] 0.011 | [5] 0.002

SERPINF2 (UniProt P08697)
inactive: [1] -0.006 | [2] -0.114 | [3] 0.151 | [4] -0.035 | [5] 0.106

SETD3 (UniProt Q86TU7)
inactive: [1] -0.017 | [2] 0.018 | [3] 0.061 | [4] 0.021 | [5] -0.005

SEMA4B (UniProt Q9NPR2)
inactive: [1] 0.023 | [2] -0.083 | [3] 0.081 | [4] 0.133 | [5] 0.085

SETMAR (UniProt Q53H47)
inactive: [1] 0.001 | [2] 0.096 | [3] 0.033 | [4] -0.031 | [5] -0.02

SERINC3 (UniProt Q13530)
inactive: [1] -0.062 | [2] 0.045 | [3] 0.071 | [4] -0.062 | [5] 0.133

SEPTIN5 (UniProt Q99719)
inactive: [1] -0.021 | [2] 0.069 | [3] 0.014 | [4] -0.045 | [5] -0.016

SF3B6 (UniProt Q9Y3B4)
inactive: [1] -0.024 | [2] -0.04 | [3] 0.098 | [4] 0.007 | [5] -0.027

SERPINC1 (UniProt P01008)
inactive: [1] -0.031 | [2] -0.055 | [3] 0.077 | [4] 0.099 | [5] 0.156

SH3GL1 (UniProt Q99961)
inactive: [1] -0.073 | [2] 0 | [3] 0.118 | [4] 0.002 | [5] -0.049

SEPSECS (UniProt Q9HD40)
inactive: [1] 0.029 | [2] -0.04 | [3] -0.109 | [4] -0.025 | [5] 0.046

SGTB (UniProt Q96EQ0)
inactive: [1] -0.033 | [2] 0.055 | [3] 0.135 | [4] -0.043 | [5] -0.031

SELENOK (UniProt Q9Y6D0)
inactive: [1] -0.061 | [2] -0.061 | [3] 0.092 | [4] -0.005 | [5] -0.118

SH3BGRL2 (UniProt Q9UJC5)
inactive: [1] 0.071 | [2] 0.101 | [3] -0.004 | [4] -0.018 | [5] -0.129

SIDT2 isoform 2 (UniProt Q8NBJ9)
inactive: [1] -0.005 | [2] -0.005 | [3] 0.018 | [4] -0.115 | [5] 0.088

SESN2 (UniProt P58004)
inactive: [1] -0.03 | [2] -0.031 | [3] 0.067 | [4] 0.066 | [5] -0.028

SEPHS1 (UniProt P49903)
inactive: [1] 0.004 | [2] 0.068 | [3] 0.007 | [4] -0.014 | [5] -0.015

Three records picked at random from the list so far:
SESN2 (UniProt P58004)
inactive: [1] -0.03 | [2] -0.031 | [3] 0.067 | [4] 0.066 | [5] -0.028

SGTB (UniProt Q96EQ0)
inactive: [1] -0.033 | [2] 0.055 | [3] 0.135 | [4] -0.043 | [5] -0.031

SH3BGRL2 (UniProt Q9UJC5)
inactive: [1] 0.071 | [2] 0.101 | [3] -0.004 | [4] -0.018 | [5] -0.129

More records follow.

SF3A3 (UniProt Q12874)
inactive: [1] -0.091 | [2] -0.041 | [3] 0.006 | [4] 0.013 | [5] -0.069

SEC61A2 (UniProt Q9H9S3)
inactive: [1] 0 | [2] 0.047 | [3] -0.055 | [4] -0.048 | [5] 0.03

SEH1L isoform 1 (UniProt Q96EE3)
inactive: [1] -0.003 | [2] 0.06 | [3] -0.003 | [4] -0.014 | [5] 0.017

SHC1 isoform 6 (UniProt P29353)
inactive: [1] -0.011 | [2] 0.037 | [3] 0.007 | [4] 0.009 | [5] 0.042

SIAE (UniProt Q9HAT2)
inactive: [1] -0.035 | [2] -0.011 | [3] 0.21 | [4] 0.073 | [5] 0.035

SELENOS (UniProt Q9BQE4)
inactive: [1] 0.003 | [2] 0.052 | [3] 0.04 | [4] 0.014 | [5] 0.093

SEPTIN11 isoform 2 (UniProt Q9NVA2)
inactive: [1] 0.028 | [2] 0.024 | [3] 0.007 | [4] -0.02 | [5] 0

SEMG2 (UniProt Q02383)
inactive: [1] 0.038 | [2] 0.063 | [4] -0.047 | [5] -0.066

SERF2 (UniProt P84101)
inactive: [1] 0.016 | [2] 0.128 | [3] -0.029 | [4] 0.039 | [5] 0.014

SERPINB9 (UniProt P50453)
inactive: [1] 0 | [2] 0.014 | [3] 0.023 | [4] -0.037 | [5] -0.004

SIRT2 (UniProt Q8IXJ6)
inactive: [1] -0.075 | [2] 0.107 | [3] 0.105 | [4] 0.093 | [5] -0.016

SIGMAR1 (UniProt Q99720)
inactive: [1] -0.03 | [2] -0.011 | [3] 0.052 | [4] -0.013 | [5] 0.039

SHMT2 (UniProt P34897)
inactive: [1] 0.012 | [2] 0.003 | [3] 0.025 | [4] -0.006 | [5] 0.009

SERPINB6, A0A087X1N8
inactive: [1] 0.007 | [2] 0.006 | [3] -0.047 | [4] 0.011 | [5] 0.016

SIAH2 (UniProt O43255)
inactive: [1] -0.066 | [2] 0.076 | [3] 0.008 | [5] 0.116

SEC63 (UniProt Q9UGP8)
inactive: [1] -0.006 | [2] 0.063 | [3] 0.032 | [4] -0.029 | [5] -0.012

SFR1 isoform 2 (UniProt Q86XK3)
inactive: [1] 0.005 | [2] 0.113 | [3] 0.108 | [5] 0.056

SF3B1 (UniProt O75533)
inactive: [1] -0.023 | [2] 0.015 | [3] 0.039 | [4] 0.043 | [5] 0.009

SGTA (UniProt O43765)
inactive: [1] -0.005 | [2] 0.017 | [3] 0.04 | [4] -0.042 | [5] -0.03

SEPTIN5 (UniProt G3XAH0)
inactive: [1] 0.002 | [2] -0.014 | [3] 0.061 | [4] -0.043 | [5] -0.031

SGO1 (UniProt Q5FBB7)
inactive: [1] 0.002 | [2] 0.015 | [3] 0.001 | [4] 0.015 | [5] -0.008
